Measurements reported in PubChem BioAssay AID1159578 (Peter MacCallum Cancer Centre, 2015)
Purpose: 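siRNA pools altering how lymphatic endothelial cells close a scratch wound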 (primary screen). System: human lymphatic endothelial cells. Reagent: siRNA pool against human genes, 40 nM. Duration: 48 h after transfection. Read-out: 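Cells stained with dye and imaged after a scratch; covered wound area and nuclei counted, duplicates averaged, migration set against mock wells and turned into a robust z-score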. Scale: migration robust z-score: higher = faster migration into the scratch; migration relative to mock: higher = more scratch area covered than mock; nuclei per well: higher = more cells in the well. Active means: 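Migration changed when robust z exceeds 2 or falls below -2 and mean nuclei number is at least 3300; otherwise not called changed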. Meaning of the calls: active = migration changed; inactive = no migration change, or too few cells.
The deposit covers about 18,000 reagents; this is an unselected part. About 1,030 of them (5.7%) count as active. 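Inactive calls also include pools with fewer than 3300 nuclei, whose migration was not assessed.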 The raw values are shown without normalisation.

target gene | PubChem SID | migration robust z-score | migration class with cell-count check | migration relative to mock | nuclei per well, duplicate mean | outcome
DMAC2 | SID255358409 | 0.31 | migration z between -2 and 2; enough cells | 0.96 | 5044 | inactive
SOSTDC1 | SID255356559 | 0.61 | migration z between -2 and 2; enough cells | 1.04 | 6554 | inactive
PDYN | SID255351498 | 0.6 | migration z between -2 and 2; enough cells | 1.04 | 6610 | inactive
AFF4 | SID255356933 | 0.02 | migration z between -2 and 2; enough cells | 0.81 | 5784 | inactive
CRIP2 | SID255349086 | -0.23 | migration z between -2 and 2; enough cells | 0.82 | 5290 | inactive
PSME2 | SID255351913 | 0.5 | migration z between -2 and 2; enough cells | 1.02 | 5633 | inactive
GRM6 | SID255350054 | 1.17 | migration z between -2 and 2; enough cells | 1.03 | 5903 | inactive
SDHB | SID255352351 | 0.8 | migration z between -2 and 2; enough cells | 0.96 | 6537 | inactive
YLPM1 | SID255359057 | 1.58 | migration z between -2 and 2; enough cells | 1.3 | 6539 | inactive
MUC13 | SID255359110 | 1.29 | migration z between -2 and 2; enough cells | 1.22 | 6555 | inactive
ADTRP | SID255361520 | -0.6 | migration z between -2 and 2; enough cells | 0.73 | 4662 | inactive
LMBRD2 | SID255361992 | 1.44 | migration z between -2 and 2; enough cells | 1.26 | 5892 | inactive
LRRN4CL | SID255364272 | -1.24 | migration z between -2 and 2; enough cells | 0.57 | 4925 | inactive
SELENOO | SID255361048 | -0.38 | migration z between -2 and 2; enough cells | 0.79 | 6088 | inactive
PIGQ | SID255354026 | -0.24 | migration z between -2 and 2; enough cells | 0.82 | 5560 | inactive
FKBPL | SID255359788 | 1.5 | migration z between -2 and 2; enough cells | 1.27 | 6064 | inactive
MEF2D | SID255350926 | -0.28 | migration z between -2 and 2; enough cells | 0.75 | 4720 | inactive
KCTD21 | SID255364649 | -1 | migration z between -2 and 2; enough cells | 0.62 | 5882 | inactive
VTN | SID255353120 | 0.78 | migration z between -2 and 2; enough cells | 1.09 | 7046 | inactive
BTBD7 | SID255358809 | -1.39 | migration z between -2 and 2; enough cells | 0.52 | 5516 | inactive
EIF4H | SID255353125 | -0.2 | migration z between -2 and 2; enough cells | 0.76 | 4651 | inactive
ANXA10 | SID255355677 | -1.1 | migration z between -2 and 2; enough cells | 0.6 | 5425 | inactive
ST8SIA5 | SID255357207 | -1.02 | migration z between -2 and 2; enough cells | 0.61 | 5820 | inactive
LRRC56 | SID255362309 | 0.64 | migration z between -2 and 2; enough cells | 1.05 | 6364 | inactive
TMEM257 (retired record) | SID255354070 | 0.14 | migration z between -2 and 2; enough cells | 0.92 | 6644 | inactive
AURKAIP1 | SID255358336 | 1.12 | migration z between -2 and 2; enough cells | 1.02 | 5764 | inactive
OVOL2 | SID255359640 | -1.06 | migration z between -2 and 2; enough cells | 0.61 | 5197 | inactive
POLB | SID255351674 | 1.01 | migration z between -2 and 2; enough cells | 1 | 5950 | inactive
ISOC2 | SID255360449 | -1.97 | migration z between -2 and 2; enough cells | 0.42 | 5481 | inactive
TUBGCP3 | SID255355068 | -0.45 | migration z between -2 and 2; enough cells | 0.77 | 5685 | inactive
PLGRKT | SID255358910 | -0.18 | migration z between -2 and 2; enough cells | 0.84 | 7052 | inactive
TSPAN1 | SID255354811 | 1.68 | migration z between -2 and 2; enough cells | 1.32 | 5284 | inactive
PRRG4 | SID255360188 | 0.48 | migration z between -2 and 2; enough cells | 1.01 | 4544 | inactive
GABPB1 | SID255349787 | -0.37 | migration z between -2 and 2; enough cells | 0.79 | 6848 | inactive

12 consecutive entries already listed, quoted:
target gene | PubChem SID | migration robust z-score | migration class with cell-count check | migration relative to mock | nuclei per well, duplicate mean | outcome
ADTRP | SID255361520 | -0.6 | migration z between -2 and 2; enough cells | 0.73 | 4662 | inactive
LMBRD2 | SID255361992 | 1.44 | migration z between -2 and 2; enough cells | 1.26 | 5892 | inactive
LRRN4CL | SID255364272 | -1.24 | migration z between -2 and 2; enough cells | 0.57 | 4925 | inactive
SELENOO | SID255361048 | -0.38 | migration z between -2 and 2; enough cells | 0.79 | 6088 | inactive
PIGQ | SID255354026 | -0.24 | migration z between -2 and 2; enough cells | 0.82 | 5560 | inactive
FKBPL | SID255359788 | 1.5 | migration z between -2 and 2; enough cells | 1.27 | 6064 | inactive
MEF2D | SID255350926 | -0.28 | migration z between -2 and 2; enough cells | 0.75 | 4720 | inactive
KCTD21 | SID255364649 | -1 | migration z between -2 and 2; enough cells | 0.62 | 5882 | inactive
VTN | SID255353120 | 0.78 | migration z between -2 and 2; enough cells | 1.09 | 7046 | inactive
BTBD7 | SID255358809 | -1.39 | migration z between -2 and 2; enough cells | 0.52 | 5516 | inactive
EIF4H | SID255353125 | -0.2 | migration z between -2 and 2; enough cells | 0.76 | 4651 | inactive
ANXA10 | SID255355677 | -1.1 | migration z between -2 and 2; enough cells | 0.6 | 5425 | inactive

The listing continues.
target gene | PubChem SID | migration robust z-score | migration class with cell-count check | migration relative to mock | nuclei per well, duplicate mean | outcome
ENTR1 | SID255355367 | 0.62 | migration z between -2 and 2; enough cells | 1.04 | 6670 | inactive
TLE3 | SID255352882 | -1.4 | migration z between -2 and 2; enough cells | 0.52 | 4900 | inactive
TMEM220 | SID255365480 | -1.42 | migration z between -2 and 2; enough cells | 0.52 | 5120 | inactive
BAIAP3 | SID255353933 | -0.9 | migration z between -2 and 2; enough cells | 0.66 | 5624 | inactive
CLEC3A | SID255354844 | -0.76 | migration z between -2 and 2; enough cells | 0.68 | 5907 | inactive
APOO | SID255360225 | 0.75 | migration z between -2 and 2; enough cells | 1.09 | 4197 | inactive
CLASP2 | SID255356005 | 0.13 | migration z between -2 and 2; enough cells | 0.92 | 5656 | inactive
HTR3E | SID255364835 | -0.16 | migration z between -2 and 2; enough cells | 0.84 | 6434 | inactive
KLHL41 | SID255354996 | -0.58 | migration z between -2 and 2; enough cells | 0.74 | 5484 | inactive
RND2 | SID255353405 | -1.5 | migration z between -2 and 2; enough cells | 0.52 | 4802 | inactive
MESD | SID255356051 | -0.01 | migration z between -2 and 2; enough cells | 0.88 | 5773 | inactive
GOT2 | SID255349965 | 0.91 | migration z between -2 and 2; enough cells | 0.98 | 5230 | inactive
TIMM29 | SID255361842 | 1.85 | migration z between -2 and 2; enough cells | 1.36 | 4898 | inactive
CHAF1A | SID255354755 | -0.86 | migration z between -2 and 2; enough cells | 0.66 | 4096 | inactive
FOXS1 | SID255349712 | 0.05 | migration z between -2 and 2; enough cells | 0.82 | 4666 | inactive
DNALI1 | SID255353301 | -1.08 | migration z between -2 and 2; enough cells | 0.6 | 3583 | inactive
COL14A1 | SID255353067 | -2.64 | under 3300 nuclei; migration not judged | 0.2 | 3126 | inactive
PSG9 | SID255351873 | 1.01 | migration z between -2 and 2; enough cells | 1.15 | 5964 | inactive
TMED9 | SID255358137 | 1.04 | migration z between -2 and 2; enough cells | 1.15 | 5033 | inactive
FAM162A | SID255356778 | 0.45 | migration z between -2 and 2; enough cells | 1.01 | 5268 | inactive
PRR20A | SID255362542 | 0.45 | migration z between -2 and 2; enough cells | 1 | 6177 | inactive
CHGB | SID255348902 | 0.12 | migration z between -2 and 2; enough cells | 0.92 | 5634 | inactive
LRRC4 | SID255359829 | 2.91 | migration z above 2; enough cells | 1.64 | 5784 | active
OPLAH | SID255356854 | -1.06 | migration z between -2 and 2; enough cells | 0.6 | 3711 | inactive
PEX13 | SID255351512 | -0.65 | migration z between -2 and 2; enough cells | 0.68 | 5298 | inactive
SLC39A8 | SID255359840 | 0.75 | migration z between -2 and 2; enough cells | 1.08 | 6028 | inactive
ZNF263 | SID255354829 | -0.32 | migration z between -2 and 2; enough cells | 0.8 | 7792 | inactive
PLAC1 | SID255355331 | -0.34 | migration z between -2 and 2; enough cells | 0.8 | 5215 | inactive
CSNK1G2-AS1 | SID255364486 | 1.21 | migration z between -2 and 2; enough cells | 1.19 | 7110 | inactive
PHB2 | SID255355756 | 0.93 | migration z between -2 and 2; enough cells | 0.98 | 5163 | inactive
LAMA2 | SID255350716 | 0.22 | migration z between -2 and 2; enough cells | 0.94 | 5866 | inactive
CALHM5 | SID255364450 | 1.59 | migration z between -2 and 2; enough cells | 1.29 | 5346 | inactive
GNG12 | SID255358972 | 0.09 | migration z between -2 and 2; enough cells | 0.92 | 5971 | inactive
ADAMTS14 | SID255363137 | 0.36 | migration z between -2 and 2; enough cells | 0.88 | 5140 | inactive
KCNJ8 | SID255350612 | -0.44 | migration z between -2 and 2; enough cells | 0.72 | 5108 | inactive
WDR49 | SID255363509 | 0.09 | migration z between -2 and 2; enough cells | 0.91 | 5750 | inactive
GDPD1 | SID255364747 | -0.16 | migration z between -2 and 2; enough cells | 0.77 | 5425 | inactive
CEP104 | SID255354508 | 0.54 | migration z between -2 and 2; enough cells | 1.02 | 6534 | inactive
SLC44A1 | SID255356248 | -1.48 | migration z between -2 and 2; enough cells | 0.52 | 4246 | inactive
